Source: publication PMC6445466
No constants are given. Whether binding was seen depends on the method and setting.

Chains of the proteins cited; added tags and fusions are not shown. Residues count along the entry.
recombinant His-C1r-CCP1-CCP2 (residues 309-449) (P00736, residues 309-449): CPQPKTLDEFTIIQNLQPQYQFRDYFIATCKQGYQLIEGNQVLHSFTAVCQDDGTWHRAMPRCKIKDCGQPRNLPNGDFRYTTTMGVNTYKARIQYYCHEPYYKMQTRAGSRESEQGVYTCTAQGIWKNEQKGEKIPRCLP
recombinant His-C1r-CCP1 (residues 309-373) (P00736, residues 309-373): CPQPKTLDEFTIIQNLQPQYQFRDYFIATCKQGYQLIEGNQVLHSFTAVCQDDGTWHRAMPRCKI

Assays:
[1] = biological target: T1, BBK32(206-348) (residues 206-348, B. burgdorferi strain B31) (Borrelia burgdorferi strain B31) (UniProt O50835); experiment: SPR; Biacore T200, 25 °C, BBK32(206-348) immobilised; C1r fragments as analytes, single-cycle as for C1r, 0.8 to 500 nM; 1:1 Langmuir fit; both purified
T1 sequence: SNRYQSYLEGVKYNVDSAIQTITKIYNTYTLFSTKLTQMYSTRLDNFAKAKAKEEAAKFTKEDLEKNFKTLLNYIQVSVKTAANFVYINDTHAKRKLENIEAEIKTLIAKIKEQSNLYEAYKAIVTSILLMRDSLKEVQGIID

[2] = biological target: T1, BBK32(206-348) (residues 206-348, B. burgdorferi strain B31) (Borrelia burgdorferi strain B31); experiment: SPR; Biacore T200, 25°C; BBK32(206-348) immobilised by amine coupling; C1r fragments as analytes, single-cycle kinetics as for C1r, 0.8 to 500 nM; 1:1 kinetic fit; triplicate; both purified

Substance | binding [1] | binding [2]
His-C1r-CCP1 (residues 309-373) (from UniProt P00736 309-373) (domain or fragment) | no binding (tested: 0.8 to 500 nM) | –
recombinant His-C1r-CCP1 (residues 309-373) (from UniProt P00736 309-373) (domain or fragment) | – | no binding (tested: 0.8 to 500 nM)
His-C1r-CCP1-CCP2 (residues 309-449) (from UniProt P00736 309-449) (domain or fragment) | no binding (tested: 0.8 to 500 nM) | –
recombinant His-C1r-CCP1-CCP2 (residues 309-449) (from UniProt P00736 309-449) (domain or fragment) | – | no binding (tested: 0.8 to 500 nM)
